The campaign covered roughly 1,600 compounds. About 20 (1%) were called active.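 The calls were made as follows: active = ratio of uncleaved NAD to its breakdown product ADP-ribose above 4, meaning the enzyme was inhibited; inactive = the rest.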 The list shows a part of the results.
target: NAD(+) hydrolase SARM1 (Homo sapiens) (UniProt Q6SZW1); assay: SARM1 TIR NADase inhibitors by HPLC, primary screen, cell lysate, HPLC readout (AID 1508615); details: HEK293T SAM-TIR lysate, at 5 µM, stronger effect = higher value;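 also: substrate NAD at 5 µM with 60 min at 37 °C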

Protein sequences, listed by entry. Tags and fused reporters are not part of them. Lines headed by an entry give the natural chain unless they say otherwise; changes in a name come on top.
UniProt Q6SZW1: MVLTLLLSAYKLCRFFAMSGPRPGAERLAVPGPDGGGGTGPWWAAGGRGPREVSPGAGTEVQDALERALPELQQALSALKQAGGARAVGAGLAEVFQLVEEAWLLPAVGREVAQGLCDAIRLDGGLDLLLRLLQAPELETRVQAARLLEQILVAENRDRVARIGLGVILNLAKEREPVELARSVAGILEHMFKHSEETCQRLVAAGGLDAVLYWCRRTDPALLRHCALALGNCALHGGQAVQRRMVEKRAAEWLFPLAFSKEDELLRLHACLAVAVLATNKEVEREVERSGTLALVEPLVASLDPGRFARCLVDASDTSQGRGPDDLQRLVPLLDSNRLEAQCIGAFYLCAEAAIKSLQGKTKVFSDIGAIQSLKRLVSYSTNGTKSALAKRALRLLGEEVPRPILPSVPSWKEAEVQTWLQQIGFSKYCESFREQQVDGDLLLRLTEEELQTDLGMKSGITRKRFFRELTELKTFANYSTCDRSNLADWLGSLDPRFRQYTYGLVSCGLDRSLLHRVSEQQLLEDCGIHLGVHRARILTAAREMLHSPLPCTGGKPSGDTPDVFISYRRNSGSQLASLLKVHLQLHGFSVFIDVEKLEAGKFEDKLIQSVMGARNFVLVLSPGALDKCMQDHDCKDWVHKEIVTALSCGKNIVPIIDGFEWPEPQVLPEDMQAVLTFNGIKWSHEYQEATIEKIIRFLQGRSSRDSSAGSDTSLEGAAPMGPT

NAD/ADPR ratio, inactive:
Cc1ccc(Cl)cc1NC(=O)c1cc2ccccc2cc1O 3
C=CCOCCN(CC)CC 3
CCOP(=O)(OCC)/C(C#N)=C/c1ccc(-c2ccc(F)cc2F)o1 3
O=[N+]([O-])c1ccc2[nH]c3nc4ccccc4nc3c2c1 3
CC(C)n1cc(C#N)c(N)n1 3
O=C1NC(=O)N2CCSC2(Cc2ccccc2)N1 (stereo not given) 3
COC(=O)Cc1[nH]c(=O)[nH]c1C(=O)OC 3
C=C(C)C(=O)Oc1ccc(N=Nc2ccc(C)cc2)ccc1=O 3
Cc1cc(OCCCCOc2ccc(C#N)cc2)ccc1[N+](=O)[O-] 3
Oc1ccc(/C=C/c2cnccn2)cc1 3
CC12C(=O)N(c3nccs3)C(=O)C1(C)C1CCC2O1 (stereo not given) 3
CCOC(=O)c1c(N)ssc1=S 3
CN1C(=O)CC2(C)C1=CCc1scnc12 (stereo not given) 3
Cn1c(=O)c2[nH]c(SCc3ccccn3)nc2n(C)c1=S 3
O=C(N(c1ccccc1)c1ccccc1)N(c1ccccc1)c1ccccc1 3
CCC(CC)NCCOC(=O)c1ccc([N+](=O)[O-])cc1 3
CC12CCC(C(=Nc3ccc(N=C4C(=O)C5(C)CCC4C5(C)C)cc3)C1=O)C2(C)C 3
O=[N+]([O-])c1cccc(/C=C/c2ccccn2)c1 3
CC(=O)[C@@]1(O)C(C)CC2C3C=C(C)C4=Cc5c(cnn5-c5ccccc5)C[C@]4(C)C3C(O)C[C@@]21C (stereo not given in full) 3
CC1=CC(C)(C)NC(=S)N1c1cccc2cc(S(=O)(=O)O)ccc12 3
OC(C#Cc1ccccc1)(c1ccccc1)c1ccccc1 3
CCCc1cc(=O)oc2c3c(c4c(c12)OC(C)(C)C=C4)OC(C)C(C)C3O (stereo not given) 3
C1CCCC(NC2=NCCO2)CCC1 3
Cc1ccc(Nc2n[nH]c(=S)s2)cc1F 3
COc1ccccc1/C=C(/C#N)C(=O)O 3
O=c1cc(-c2ccc(O)cc2)oc2c(O)c(O)c(O)c(O)c12 3
CC(C)(CO)N1CCN(C(=S)Nc2ccccc2)CC1 3
O=C1C(CO)C(CO)C(CO)C1CO (stereo not given) 3
Nc1cc(-c2ccccc2)ccc1O 3
O=C1N=NC2=C1c1c3ccccc3c(O)n1CC2 3
N#CC1=C2CCCCC2(O)NC1=O (stereo not given) 3
Nc1ccccc1SC1CC(=O)N(c2ccc(Cl)c(Cl)c2)C1=O (stereo not given) 3
Nc1ccccc1SC1CC(=O)N(c2ccccc2Cl)C1=O (stereo not given) 3
Nc1ccc(S(=O)(=O)Nc2cnc3ccccc3n2)cc1 3
NC(N)=Nc1ccc(N=C(N)N)cc1 3
O=c1ccn2c(n1)SC(c1ccccc1)C2 (stereo not given) 3
N#Cc1ncc(Cl)c2ccccc12 3
Oc1ccccc1N=Cc1c(O)ccc2ccccc12 3
CCCCSc1cc(C)nc(N)n1 3
CSc1nc(O)c(Nc2cccc(Cl)c2)c(=O)[nH]1 3
O=C(Nc1ccc(Cl)cc1)Nc1cccc2nsnc12 3
Cn1c(SCc2ccccn2)nc2c1c(=O)[nH]c(=O)n2C 3
CSc1cccc(NC(=O)N2CCN(C)CC2)c1 3
C#CCCOC(=O)Nc1ccccc1 3
OC(c1cc(-c2ccc(C(F)(F)F)cc2)nc(C(F)(F)F)c1)C1CCCCN1 (stereo not given) 3
NC(=S)N/N=C/c1cc(-c2cccc(N)c2)ccn1 3
Clc1ccc(SCNc2ccccc2Cl)cc1 3
N=C(N)n1c(N)nc2ccccc2c1=O 3
c1ccc(NN(Cc2ccncc2)c2ccccc2)cc1 3
CCCCCC(=O)C(=O)c1ccc(O)cc1O 3
O=S1(=O)CCN(Cc2ccccn2)CC1 3
O=C(CN1CCOCC1)N1CCOCC1 3
Cc1ccc(-n2nnnc2-c2cccnc2)cc1 3
CC1CC2OC(=O)C3(C)CCCC(C)(C23)C1(O)CCc1ccoc1 (stereo not given) 3
COc1ccc([N+](=O)[O-])cc1NC(=O)N(C)Cc1ccco1 3
CC1(C)CC2(C)OC2C2(C1)N=NC(=Nc1ccccc1)O2 (stereo not given) 3
O=C(O)CCc1cccnc1 3
Nc1ccccc1C(=O)Nc1ccc(Cl)cc1Cl 3
N#Cc1cc(-c2ccccc2)[nH]c1-c1nccc2ccccc12 3
Clc1ccccc1-c1nc(-c2ccncc2)no1 3
CC(=O)c1cc2c(cc1C)CCCC2(C)C 3
N#CCS(=O)(=O)c1cccc[n+]1[O-] 3
CC1(C)c2ccccc2-c2nc3ccccc3cc2C1O (stereo not given) 3
COC(=O)[C@H]1[C@H]2C[C@@H]3c4[nH]c5cc(OC)ccc5c4CCN3C[C@H]2C[C@@H](OC(=O)CC(C)=O)[C@@H]1OC 3
C1=CC2(C=C1)OC21CCC2(C=CC3(C2)OC3C2CCCCC2)CC1 (stereo not given) 3
O=C(O)C(c1ccccc1)C1(O)CCCCC1 (stereo not given) 3
O=c1[nH]c(C(F)(F)C(F)(F)C(F)(F)F)no1 3
CCCCN1CCNC1=S 3
CC(C)(C)NC(=O)c1ccc(C(=O)NC(C)(C)C)cc1 3
Cc1[nH]c(=O)n(C(C)C)c(=O)c1Br 3
Nc1nc(N)nc(C2C=CCCC2)n1 (stereo not given) 3
COC(=O)c1cncc(C)c1 3
O=S(=O)(O)c1ccc2c(c1)C(C(Cl)(Cl)Cl)OC(C(Cl)(Cl)Cl)O2 (stereo not given) 3
CC1=C(O)C(=O)C(c2c(C)cc(C)c(Br)c2C)=C(O)C1=O 3
NC(=O)c1ccc(Oc2ccc(C(N)=O)cc2)cc1 3
CCC(C)c1c(N)n(S(=O)(=O)c2ccc(C)cc2)oc1=O (stereo not given) 3
N#CC1C(=O)NC(=O)C(C#N)C12CCCC(C(F)(F)F)C2 (stereo not given) 3
CCCCOc1ccc(NC(=O)Nc2nnc(C)s2)cc1 3
O=C(O)C(Cc1c[nH]c2ccccc12)N1C(=O)c2ccccc2C1=O (stereo not given) 3
CC(C)(C)NC1=NCCNC(c2ccccc2)=C1 3
Clc1cc2c(nn1)Nc1ccccc1S2 3
COc1cc(NC(=O)c2cc3ccccc3cc2O)c(OC)cc1Cl 3
CCOC(=O)c1nc(SC)n(C)c1C(=O)OCC 3
Cc1cc2nc3ccc(=[N+](C)C)cc-3sc2cc1N 3
OC(COc1cccc2ccccc12)CN1CCN(c2ccc(Cl)cc2)CC1 (stereo not given) 3
Nc1nc(N)c2c(ccc3nccc32)[nH]1 3
CCOC(=O)/C(C#N)=C/c1cccc(C)c1 3
Cn1c(=O)c2c(nc(N3CCCCC3)n2C)n(C)c1=O 3
O=C(Cn1nnc(N2CCCCC2)n1)N/N=C/c1ccccc1O 3
Cn1nc(N)c2ncc(C(Cl)(Cl)Cl)nc21 3
O=C(/C=C/c1ccccc1Cl)c1ccc(O)cc1 3
Cc1c2cc[n+](CCN3CCCCC3)cc2c(C)c2c1[nH]c1ccc(O)cc12 3
CC(C)(C)CC(C)(C)n1nnnc1N 3
Oc1cc(-n2cccn2)c(O)cc1-n1cccn1 3
O=[N+]([O-])/C=C/c1cc2ccccc2[nH]1 3
COc1ccc2nccc(/C=C/c3ccnc4ccc(OC)cc34)c2c1 3
O=C(NC(=S)Nc1cccc(O)c1)c1ccco1 3
COc1ccc(NC(=O)CC(C)=O)c(OC)c1 3
c1cc(-n2nnc3cnccc32)ccn1 3
O=C(Nc1ccc(C2=NCCN2)cc1)c1ccc(Cl)c(C(=O)Nc2ccc(C3=NCCN3)cc2)c1 3
Cc1c(COC(=O)NC(C)C)c(COC(=O)NC(C)C)c2n1CS(=O)(=O)C2 3
CCCCOP(=O)(OCCCC)C1(C)CC(=O)CC(C)(C)C1 (stereo not given) 3
CC(=O)Nc1c(C)cc(OCC(=O)O)cc1C 3
O=c1cc2c(=O)oc3cc(O)c(O)oc3c2c(O)c1O 3
NC(=S)Nc1cccc(Cl)c1 3
O=C(Nc1ccc(Cl)c(Cl)c1)Nc1ccccc1O 3
O=C(O)C1CCC(=O)N1C(=O)OCc1ccccc1 (stereo not given) 3
O=[N+]([O-])c1ccc(NN=C(c2ccccc2)c2ccccc2)nc1 2.8
NC(N)=N/N=C/c1c(Cl)cccc1Cl 3
N#C/C(=C\c1ccc(C#N)cc1)C(=O)c1ccccc1 3
CC(NC(=O)c1ccc(Cl)c(Cl)c1)c1ccc(-c2ccccc2)cc1 (stereo not given) 3
CC1=CC(=O)C(C(C)=Nc2ccccc2Cl)C(=O)O1 (stereo not given) 3
Cc1ccc(C)c(N2CCN(c3ccncc3N)CC2)c1 3
OCC1(CO)COC2(CCCC2)N1 3
O=C1CCC(NC(=O)c2ccccc2)C(=O)N1 (stereo not given) 3
Nc1cc(=O)[nH]c2ncnn12 3
N#C/C(=C\c1c[nH]c2ccccc12)C(N)=O 3
NS(=O)(=O)c1ccc(Cl)cc1[N+](=O)[O-] 3
CCn1c2ccccc2c2cc(NC(=O)Nc3ccc([N+](=O)[O-])cc3C)ccc21 3

3 compounds already listed, ordered by molecular weight, falling:
NAD/ADPR ratio, inactive:
CCOC(=O)c1nc(SC)n(C)c1C(=O)OCC 3
Cc1cc2nc3ccc(=[N+](C)C)cc-3sc2cc1N 3
CSc1cccc(NC(=O)N2CCN(C)CC2)c1 3

Structures above with two or more sulfur atoms (4):
NAD/ADPR ratio, inactive:
CCOC(=O)c1c(N)ssc1=S 3
Cn1c(=O)c2[nH]c(SCc3ccccn3)nc2n(C)c1=S 3
CC1=CC(C)(C)NC(=S)N1c1cccc2cc(S(=O)(=O)O)ccc12 3
Cc1ccc(Nc2n[nH]c(=S)s2)cc1F 3

Following part.

NAD/ADPR ratio, active:
O=[N+]([O-])c1ccc(Sc2cccc[n+]2[O-])c2nonc12 12.6

— PubChem BioAssay AID1508615 (Milbrandt Lab, Department of Genetics, Washington …, 2020)
